This note sets out measurements from paper PMC3750028.

Amino acid sequences for entries named in this document (tags omitted). Residues count along the entry.
UniProt Q08345, residues 19-913: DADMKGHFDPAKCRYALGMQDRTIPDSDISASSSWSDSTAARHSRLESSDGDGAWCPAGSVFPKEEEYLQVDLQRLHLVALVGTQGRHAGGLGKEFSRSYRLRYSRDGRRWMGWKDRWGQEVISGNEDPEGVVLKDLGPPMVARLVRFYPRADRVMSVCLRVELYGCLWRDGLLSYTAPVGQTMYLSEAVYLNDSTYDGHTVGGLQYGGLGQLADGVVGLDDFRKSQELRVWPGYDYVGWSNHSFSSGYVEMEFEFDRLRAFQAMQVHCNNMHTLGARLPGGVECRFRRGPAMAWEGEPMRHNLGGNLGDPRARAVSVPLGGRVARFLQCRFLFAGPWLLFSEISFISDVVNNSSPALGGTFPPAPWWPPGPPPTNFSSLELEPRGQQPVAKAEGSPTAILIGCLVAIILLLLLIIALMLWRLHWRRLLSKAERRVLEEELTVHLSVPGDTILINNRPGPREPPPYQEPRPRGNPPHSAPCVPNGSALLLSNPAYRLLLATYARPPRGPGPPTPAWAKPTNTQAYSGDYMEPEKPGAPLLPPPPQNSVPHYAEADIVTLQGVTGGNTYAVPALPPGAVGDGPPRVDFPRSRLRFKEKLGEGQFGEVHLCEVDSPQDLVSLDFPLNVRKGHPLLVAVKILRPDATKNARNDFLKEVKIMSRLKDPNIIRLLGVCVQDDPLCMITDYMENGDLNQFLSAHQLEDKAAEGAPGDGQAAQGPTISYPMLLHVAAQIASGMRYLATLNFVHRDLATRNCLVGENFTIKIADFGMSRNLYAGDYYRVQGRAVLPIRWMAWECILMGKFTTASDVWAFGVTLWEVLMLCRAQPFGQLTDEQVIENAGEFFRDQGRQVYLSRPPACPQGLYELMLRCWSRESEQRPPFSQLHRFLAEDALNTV
UniProt P39059, residues 28-1388: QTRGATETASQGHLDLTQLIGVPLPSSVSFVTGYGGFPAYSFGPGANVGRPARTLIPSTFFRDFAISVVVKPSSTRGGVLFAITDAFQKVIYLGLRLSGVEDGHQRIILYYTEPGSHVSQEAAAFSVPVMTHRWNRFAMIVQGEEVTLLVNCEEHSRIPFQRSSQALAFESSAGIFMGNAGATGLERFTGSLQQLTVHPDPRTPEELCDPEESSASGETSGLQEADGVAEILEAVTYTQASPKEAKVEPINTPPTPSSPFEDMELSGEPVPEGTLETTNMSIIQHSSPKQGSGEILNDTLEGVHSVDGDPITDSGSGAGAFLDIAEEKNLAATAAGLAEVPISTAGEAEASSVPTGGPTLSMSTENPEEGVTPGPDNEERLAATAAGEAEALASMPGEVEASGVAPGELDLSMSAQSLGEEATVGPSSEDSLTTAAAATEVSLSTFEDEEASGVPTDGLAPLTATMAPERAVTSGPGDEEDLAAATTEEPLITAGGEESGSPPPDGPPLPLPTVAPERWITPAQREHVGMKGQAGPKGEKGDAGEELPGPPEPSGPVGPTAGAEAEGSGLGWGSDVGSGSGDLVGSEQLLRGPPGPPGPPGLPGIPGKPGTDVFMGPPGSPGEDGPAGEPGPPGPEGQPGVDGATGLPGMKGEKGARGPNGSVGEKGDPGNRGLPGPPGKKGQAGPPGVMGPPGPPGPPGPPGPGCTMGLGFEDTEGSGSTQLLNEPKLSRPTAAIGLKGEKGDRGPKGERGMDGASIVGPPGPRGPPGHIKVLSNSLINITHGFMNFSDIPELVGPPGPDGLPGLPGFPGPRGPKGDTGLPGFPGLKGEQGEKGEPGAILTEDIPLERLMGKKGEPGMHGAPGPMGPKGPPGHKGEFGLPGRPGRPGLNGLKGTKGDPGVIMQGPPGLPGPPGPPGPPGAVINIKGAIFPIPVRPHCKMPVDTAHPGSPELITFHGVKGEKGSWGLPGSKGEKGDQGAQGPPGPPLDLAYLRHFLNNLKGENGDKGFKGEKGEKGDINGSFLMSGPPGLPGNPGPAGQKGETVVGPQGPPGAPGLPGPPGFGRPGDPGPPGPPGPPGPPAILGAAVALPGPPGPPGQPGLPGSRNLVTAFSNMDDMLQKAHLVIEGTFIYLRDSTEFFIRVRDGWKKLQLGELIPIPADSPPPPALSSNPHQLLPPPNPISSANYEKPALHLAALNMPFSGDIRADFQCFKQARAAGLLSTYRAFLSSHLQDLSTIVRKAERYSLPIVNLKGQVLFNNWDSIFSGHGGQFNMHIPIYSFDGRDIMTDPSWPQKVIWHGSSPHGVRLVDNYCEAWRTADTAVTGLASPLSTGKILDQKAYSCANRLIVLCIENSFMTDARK

No constants are given. Whether binding was seen depends on the method and setting. In cells and extracts the contact can be indirect. Some entries that bind do so weakly or less than the wild type.

Test [1] has as its target Discoidin domain receptor 1 (DDR1), endogenous in BxPC-3 cells (human (endogenous in BxPC-3)) (UniProt Q08345). Description: co-IP; IP of DDR1 with DDR1 antibody and protein G-plus beads from lysates (RIPA pH 8.0 or NET buffer) of BxPC-3 vector clone BxVC3 and COLXV clone Bx15.14; western blots probed for COLXV, DDR1 and E-Cad.
The target of test [2] is N-terminal FLAG-epitope tagged COLXV (FCOLXV), stably expressed in BxPC-3 cells (human) (UniProt P39059). Description: co-IP; IP of FLAG-tagged COLXV with M2 anti-FLAG agarose beads from lysate of BxPC-3 clone BxF15.3; western blots probed for DDR1 and E-Cad; also after transfection of DDR1 siRNA, E-Cad siRNA or scrambled siRNA.
For test [3], the target named is N-terminal FLAG-epitope tagged COLXV (FCOLXV), stably expressed in S2-013 cells (human) (UniProt P39059). The experiment in a line: co-IP; IP of FLAG-tagged COLXV with M2 anti-FLAG antibody from S2-013 clone S2.F15.7; western blots probed with anti-DDR1 and anti-E-Cad.

As for “Collagen XV (human COLXV cDNA construct, untagged), stably expressed in BxPC-3 cells (from UniProt P39059 28-1388)”, the binding result in test [1] was “binds weakly”.

“Discoidin domain receptor 1 (DDR1), endogenous in BxPC-3 cells (from UniProt Q08345 19-913)”: in test [2], the binding entry is listed as “binds”.

Take “Discoidin domain receptor 1 (DDR1), endogenous in S2-013 cells (from UniProt Q08345 19-913)”: in test [3], the binding result is given as “binds”.
